These results are taken from PMC12551952.

Amino acid sequences for entries named in this document (tags omitted). A change or cut given only in a name is not applied to a line headed by its entry. Chains listed by the source or under a name are the forms on record and can include a tag or linker.
UniProt Q9D4K7: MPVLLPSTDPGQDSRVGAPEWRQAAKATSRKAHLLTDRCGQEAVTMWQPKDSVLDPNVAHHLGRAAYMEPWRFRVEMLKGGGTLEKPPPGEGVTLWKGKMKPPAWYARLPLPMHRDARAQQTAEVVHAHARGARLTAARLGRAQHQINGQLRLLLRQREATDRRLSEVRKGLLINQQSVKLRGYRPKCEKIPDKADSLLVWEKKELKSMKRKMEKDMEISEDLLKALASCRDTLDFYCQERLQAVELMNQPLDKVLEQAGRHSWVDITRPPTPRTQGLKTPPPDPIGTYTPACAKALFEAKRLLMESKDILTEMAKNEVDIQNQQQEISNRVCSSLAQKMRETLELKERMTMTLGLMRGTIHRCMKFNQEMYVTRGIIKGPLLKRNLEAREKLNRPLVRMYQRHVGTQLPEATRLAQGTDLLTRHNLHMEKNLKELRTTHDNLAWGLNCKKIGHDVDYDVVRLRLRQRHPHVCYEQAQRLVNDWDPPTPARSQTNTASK
MYC-tagged CFAP77 (A0A087WRI3-2, form named): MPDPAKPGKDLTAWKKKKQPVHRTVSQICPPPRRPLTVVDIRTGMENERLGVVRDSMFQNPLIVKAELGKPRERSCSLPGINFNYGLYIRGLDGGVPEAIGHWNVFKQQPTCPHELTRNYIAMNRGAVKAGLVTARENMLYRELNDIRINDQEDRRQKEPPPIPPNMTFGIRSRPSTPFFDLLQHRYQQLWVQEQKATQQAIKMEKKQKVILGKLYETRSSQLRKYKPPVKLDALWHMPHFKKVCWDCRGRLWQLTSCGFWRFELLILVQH

These are yes or no findings as the source states them, for the method shown. In cells and extracts the contact can be indirect. Some binding calls cover weakened binding; strength is not graded here. For part of these data: Where a sequence is shown, tags or fusion partners need not be part of it.

Assay [1] deals with FLAG-tagged WT-CCDC105 (mouse) (UniProt Q9D4K7). The assay is described as follows: co-IP; HEK293T cells co-transfected with FLAG-, MYC- and/or HA-tagged plasmids, lysed 48 h later in Pierce IP Lysis Buffer; lysates incubated overnight with FLAG antibody at 4°C, then Protein A/G agarose for 4 h; five washes; Western blot with anti-FLAG, anti-MYC or anti-HA. (In general: In western blotting, separated proteins are transferred to a membrane and probed.)

Assay [2] deals with T1, FLAG-tagged TEX43 (mouse) (UniProt Q9D9I1).
T1 sequence: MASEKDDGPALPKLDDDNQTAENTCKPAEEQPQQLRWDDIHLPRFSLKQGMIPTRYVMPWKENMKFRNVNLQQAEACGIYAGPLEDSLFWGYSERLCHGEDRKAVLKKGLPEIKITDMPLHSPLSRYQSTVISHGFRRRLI
The assay is described as above.

As for “HA-tagged WT-CFAP77 (from UniProt A0A087WRI3-2 1-271)”, the binding result in assay [1] is “binds”.
“MYC-tagged CFAP77 (from UniProt A0A087WRI3-2 1-271)”: the binding result is recorded as “binds” in assay [1] and “no binding” in assay [2].
